Source: patent US20220249599A1, “TREATMENT OF IMPLANTS WITH ENGINEERED ANTIMICROBIAL AMPHIPHILIC PEPTIDES” (priority 2018, published 2022)
“Also recorded” adds a separate entry of the source. For part of these data: Part of at least one peptide drawing is inferred or uncertain, most often the ends. For part of these data: For at least one compound, name, drawing or mass did not settle the structure. Bridge positions count the residues as written; N and C are the ends. Square brackets hold non-standard residues; d marks the D form. Ends that are not written are not given here. Peptide text beside a SMILES is read from it. * marks the point of attachment. Octanoyl(6-Me) = CCC(C)CCCCC(=O)*; Dab = NCC[CH](N)C(=O)O

Tests used:
[1] = tested on: Enterococcus faecium (n = 104)
Experimental: Comparator antibiotics were supplied by Micromyx, and stock solutions were prepared on the first day of testing using solvents recommended by CLSI (1). Stock solutions of all compounds were made at 40× the final testing concentration and stored at −80° C. prior to testing. Information regarding compound source, catalog and lot number, testing concentrations and drug diluent for the comparators and test agent are detailed below in Table 3.
The test organisms evaluated in this study consisted of clinical isolates from the Micromyx Repository and reference isolates from the American Type Culture Collection (ATCC; Manassas, Va.). The clinical isolates were obtained from USA hospitals. Upon initial receipt at Micromyx, the organisms were sub-cultured onto an appropriate agar medium. Following incubation, colonies were harvested from these plates and cell suspensions prepared and frozen at −80° C. with a cryoprotectant. […]
MIC values were determined using a broth microdilution procedure described by CLSI (1, 3). […]
Plates were stacked 3-4 high, covered with a lid on the top plate, placed in plastic bags, and incubated at 35° C. for 16 to 20 hrs. […] The MIC was read and recorded as the lowest concentration of drug that inhibited visible growth of the organism. […]

E. coli = assay: Mouse E. coli complicated UTI infection model; type: in vivo, Swiss Webster mice; details: mouse cUTI model, iv 2 mg/kg and 4 mg/kg
S. aureus = assay: Periprosthetic joint infection mouse model, implant biofilm CFU burden; type: in vivo; details: intraperitoneal delivery, versus untreated control mice
Experimental: Periprosthetic joint infection was modeled in a mouse by placing an intra-articular K-wire through the medullary canal of the proximal femur followed by intra-articular inoculation with S. aureus. Animals were treated systemically with an intraperitoneal delivery of cefazolin, rifampin, or the exemplary peptide of SEQ ID NO:1. Intraperitoneal delivery was chosen due to technical difficulties associated with intravenous delivery. Implant sonication and proximal femur homogenate were used to quantify viable bacteria.

P. aeruginosa = assay: Mouse P. aeruginosa infection (sepsis) model; type: in vivo, Swiss Webster mice; details: mice, iv 1, 1.5, 3 and 4 mg/kg 1 h after P. aeruginosa challenge, 7 days
[2] = tested on: Acinetobacter spp. (n = 104); type: cell-based; parameters: unit not given beside the values
Experimental: (§1) The clinical isolates were obtained from USA hospitals. […] Plates were incubated at 35° C. overnight.

[3] = tested on: Pseudomonas aeruginosa (n = 109); type: cell-based; parameters: unit not given beside the values
Experimental: as §1

[4] = tested on: Klebsiella pneumoniae (n = 101); type: cell-based
Experimental: as §1

[5] = tested on: Enterobacter spp. (n = 102); type: cell-based, Enterobacter aerogenes and E. cloacae; parameters: unit not given beside the values
Experimental: as §1

Question: With `CCC[C@@H]1C[C@@H](C(=O)N[C@@H]([C@H]2O[C@H](SC)[C@H](O)[C@@H](O)[C@H]2O)[C@H](C)Cl)N(C)C1` [Clindamycin] as the compound, how does the MIC range [1] read?
Answer: ≤0.15->16

Question: How did the “E. coli load in bladder and kidney / eradication of infection” value (E. coli) turn out when “RRWVRRVRRVWRRVVRVVRRWVRR-NH2 (C-terminus assumed) [SEQ ID NO: 1]” was run?
Answer: effectively eradicated the infection at both the 2 mg/kg and 4 mg/kg dose

Question: What about the “Reduction of implant biofilm CFU burden (sonicate culture)” value (S. aureus) of the same compound?
Answer: a dose response was observed; also recorded: statistical significant reduction

Question: What about the “Survival / eradication of infection” value (P. aeruginosa) of the same compound?
Answer: effectively eradicated the infection at a minimum of 3 mg/kg, with one fatality out of nine mice treated

Question: With `C[C@H]1c2cccc(O)c2C(=O)C2=C(O)[C@]3(O)C(=O)C(C(N)=O)=C(O)[C@@H](N(C)C)[C@@H]3[C@@H](O)[C@@H]21` [Doxycycline] as the compound, how does the MIC range [1] read?
Answer: ≤0.03 to 32 µg/mL

Question: How did the MIC range [2] turn out when `CC[C@H](C)CCCCC(=O)N[C@@H](CCN)C(=O)N[C@H](C(=O)N[C@@H](CCN)C(=O)N[C@H]1CCNC(=O)[C@H]([C@@H](C)O)NC(=O)[C@H](CCN)NC(=O)[C@H](CCN)NC(=O)[C@H](CC(C)C)NC(=O)[C@@H](CC(C)C)NC(=O)[C@H](CCN)NC1=O)[C@@H](C)O` [Colistin] ({Octanoyl(6-Me)}-[Dab]T[Dab][Dab][Dab]LL[Dab][Dab]T; lactam 4-C; configuration not given here) was run?
Answer: ≤0.03->32

Question: And the MIC range [3]?
Answer: 0.12->32

Question: What about the MIC range [4] of the same compound?
Answer: 0.06->32

Question: What about the MIC range [5] of the same compound?
Answer: ≤0.03->32
